# The list is a part of this screen's results and no random one: it is rich in T/C values a quarter to a half above the control, in often repeated tests (any T/C) and in doses without a T/C. Further doses and runs are listed elsewhere. T/C gives the treated animals as a percentage of the vehicle group. Some entries give survivors of the animals treated and no T/C: the source files T/C as zero there, which appears to mark a toxic dose or a test without result, not a measured value. Some doses without a T/C left all or most animals alive at the check, yet need not have been tolerated: the source hardly ever lists a survival T/C far under the control, and the zero likely stands for such cases as well. Survivors were counted at the toxicity check, usually on the fifth day, unless a day is given; later deaths do not show. Schedules are NCI's codes, read here as Q, the interval in days (D) or hours (H), X, the number of doses. Some doses were run more than once; the values are given in rising order. For survival time, the PubChem record calls one and a half times the control and up active, and a quarter to a half above the control has no call in these data; cut-offs in other NCI protocols can differ. Some T/C values are followed by the survivors on the day toxicity was checked, most often the fifth; without a count, all were alive then.
# Test system: P388 leukemia ip, CD2F1 mice, survival T/C
# Assay: NCI In Vivo Anticancer Drug Screen. Data for tumor model P388 Leukemia (intraperitoneal) in CD2F1 (CDF1) mice
# Conditions: T/C endpoint: median survival time, higher T/C = longer survival
# [1] = dose: 50.0 mg/kg/injection, schedule: Q01DX009 (ip), vehicle: saline with Tween-80
# [2] = dose: 240.0 mg/kg/injection, schedule: Q01DX005 (ip), vehicle: saline with Tween-80
# [3] = dose: 200.0 mg/kg/injection, schedule: Q01DX005 (ip), vehicle: saline with Tween-80
# [4] = dose: 60.0 mg/kg/injection, schedule: Q01DX005 (ip), vehicle: Klucel (hydroxypropylcellulose) (HPC)
# [5] = dose: 120.0 mg/kg/injection, schedule: Q01DX005 (ip), vehicle: Klucel (hydroxypropylcellulose) (HPC)
# [6] = dose: 240.0 mg/kg/injection, schedule: Q01DX005 (ip), vehicle: Klucel (hydroxypropylcellulose) (HPC)
# [7] = dose: 400.0 mg/kg/injection, schedule: Q04DX002 (ip), vehicle: Klucel (hydroxypropylcellulose) (HPC)
# [8] = dose: 2.5 mg/kg/injection, schedule: Q01DX009 (ip), vehicle: saline
# [9] = dose: 0.07 mg/kg/injection, schedule: Q01DX009 (ip), vehicle: saline
# [10] = dose: 0.15 mg/kg/injection, schedule: Q01DX009 (ip), vehicle: saline
# [11] = dose: 0.31 mg/kg/injection, schedule: Q01DX009 (ip), vehicle: saline
# [12] = dose: 200.0 mg/kg/injection, schedule: Q01DX009 (ip), vehicle: Klucel (hydroxypropylcellulose) (HPC)
compound,measurement,setting,value
Brc1ccc[n+](CCc2ccccc2)c1,survivor count,[1],2 of 6
Cc1ccc(S(=O)(=O)NNC(=O)c2nc3ccccc3c(=O)[nH]2)cc1,survivor count,[2],6 of 6
COc1cc(Nc2ccccc2)c2c(c1N)C(=O)c1ccccc1C2=O,survivor count,[3],0 of 5
CN(C)/C=N\c1ncnc2c1c(C#N)cn2C1OC(CO)C(O)C1O (centres undefined),T/C,"dose: 30.0 mg/kg/injection, schedule: Q01DX005 (ip), vehicle: Klucel (hydroxypropylcellulose) (HPC), evaluated on day 22",137 % of control
same,T/C,"dose: 30.0 mg/kg/injection, schedule: Q01DX005 (ip), vehicle: Klucel (hydroxypropylcellulose) (HPC), evaluated on day 30",130 % of control
same,survivor count,[4],0 of 6 and 5 of 6
same,survivor count,[5],0 of 6
same,survivor count,[6],0 of 6
Nc1ccccc1N1CCNCC1,survivor count,"dose: 100.0 mg/kg/injection, schedule: Q04DX003 (ip), vehicle: saline",0 of 6
same,survivor count,"dose: 200.0 mg/kg/injection, schedule: Q04DX003 (ip), vehicle: saline",0 of 6
Nc1ccc(C2C(=[N+]([O-])[O-])C=C([N+](=O)[O-])c3[nH]o[n+](=O)c32)cc1 (centres undefined),survivor count,"dose: 200.0 mg/kg/injection, schedule: Q01DX001 (ip), vehicle: saline with Tween-80",6 of 6
CC(C)CNCC(=O)Nc1ccc(Cc2ccc(NC(=O)CNCC(C)C)cc2)cc1,survivor count,[3],3 of 6
[Se]=P(c1ccccc1)(N1CCOCC1)N1CCOCC1,survivor count,"dose: 55.0 mg/kg/injection, schedule: Q01DX001 (ip), vehicle: Klucel (hydroxypropylcellulose) (HPC)",1 of 6
C[N+]1(C)CCCC(O)(C(=O)c2ccccc2)C1 (centres undefined),survivor count,"dose: 400.0 mg/kg/injection, schedule: Q01DX001 (ip), vehicle: saline",1 of 6
O=C(O)C1=C(C=C(c2ccccc2)c2ccccc2)OCCC1,survivor count,[1],6 of 6
same,survivor count,"dose: 100.0 mg/kg/injection, schedule: Q01DX009 (ip), vehicle: saline with Tween-80",6 of 6
COc1cc(OC)c(NC(=O)Oc2cc(C)c(I)cc2C)cc1Cl,survivor count,"dose: 50.0 mg/kg/injection, schedule: Q01DX009 (ip), vehicle: saline + alcohol",5 of 6
Cc1cc2c(c(C#N)c1C)NC=NC2C (centres undefined),survivor count,"dose: 200.0 mg/kg/injection, schedule: Q01DX009 (ip), vehicle: saline with Tween-80",1 of 6
CSc1nccc(=O)n1-c1ccccc1F,survivor count,"dose: 200.0 mg/kg/injection, schedule: Q04DX002 (ip), vehicle: Klucel (hydroxypropylcellulose) (HPC)",1 of 6
same,survivor count,[7],0 of 6
CC[n+]1ccc(Nc2ccc(NC(=O)c3ccc(Nc4cc[n+](CC)c5ccc([N+](=O)[O-])cc45)cc3)cc2)cc1,T/C,"dose: 1.1 mg/kg/injection, schedule: Q01DX009 (ip), vehicle: saline",136 % of control
same,T/C,"dose: 1.65 mg/kg/injection, schedule: Q01DX009 (ip), vehicle: saline",127 % of control
same,T/C,[8],131 % of control
same,T/C,"dose: 3.75 mg/kg/injection, schedule: Q01DX009 (ip), vehicle: saline",140 % of control
same,T/C,"dose: 6.25 mg/kg/injection, schedule: Q04DX003 (ip), vehicle: saline",136 % of control
same,T/C,"dose: 7.0 mg/kg/injection, schedule: Q01DX009 (ip), vehicle: Klucel (hydroxypropylcellulose) (HPC)",149 % of control
same,T/C,"dose: 12.5 mg/kg/injection, schedule: Q04DX003 (ip), vehicle: saline",145 % of control
same,survivor count,"dose: 25.0 mg/kg/injection, schedule: Q01DX009 (ip), vehicle: Klucel (hydroxypropylcellulose) (HPC)",4 of 6
same,survivor count,"dose: 37.5 mg/kg/injection, schedule: Q01DX009 (ip), vehicle: Klucel (hydroxypropylcellulose) (HPC)",0 of 6
CCOC(=O)CCC(=O)Oc1ccc2c(c1)C(=O)c1ccc(OC(=O)CCC(=O)OCC)cc1C2=O,survivor count,"dose: 15.0 mg/kg/injection, schedule: Q01DX005 (ip), vehicle: Klucel (hydroxypropylcellulose) (HPC)",6 of 6
same,survivor count,"dose: 30.0 mg/kg/injection, schedule: Q01DX005 (ip), vehicle: Klucel (hydroxypropylcellulose) (HPC)",6 of 6
same,survivor count,[4],6 of 6
same,survivor count,[5],6 of 6
same,survivor count,[6],5 of 6
CCN1C[C@]2(COC)[C@H](O)C[C@H](OC)[C@]34C1[C@H]([C@H](OC)[C@H]23)[C@]1(OC(C)=O)[C@H]2[C@@H](OC(=O)c3ccccc3)[C@](O)(C[C@H]24)[C@@H](OC)[C@@H]1O,T/C,"dose: 0.03 mg/kg/injection, schedule: Q01DX009 (ip), vehicle: saline","92, 95, 105, 115, 116 % of control"
same,T/C,[9],"91, 97, 105 % of control"
same,survivor count,[9],2 of 6 and 5 of 6
same,T/C,[10],95 and 125 % of control
same,survivor count,[10],"1 of 6, 4 of 6, 6 of 6"
same,T/C,[11],103 % of control
same,survivor count,[11],0 of 6 and 2 of 6
same,survivor count,"dose: 0.62 mg/kg/injection, schedule: Q01DX009 (ip), vehicle: saline",0 of 6
same,survivor count,"dose: 1.25 mg/kg/injection, schedule: Q01DX009 (ip), vehicle: saline",0 of 6
same,survivor count,[8],0 of 6
same,survivor count,"dose: 5.0 mg/kg/injection, schedule: Q01DX009 (ip), vehicle: saline",0 of 6
Cc1c2ccncc2c(C)c2c1[nH]c1ccc(F)cc12,T/C,"dose: 65.0 mg/kg/injection, schedule: Q04DX002 (ip), vehicle: Klucel (hydroxypropylcellulose) (HPC)",129 % of control [5 of 6 alive]
same,T/C,"dose: 130.0 mg/kg/injection, schedule: Q04DX002 (ip), vehicle: Klucel (hydroxypropylcellulose) (HPC)",138 % of control
O=c1c2cc3ccccc3cc2c(=O)n2n1CC=CC2,survivor count,[12],6 of 6
CC(C)(C)CC(C)(C)NC(=S)NC1C2CC3CC(C2)CC1C3 (centres undefined),survivor count,[12],6 of 6
COCCO[Si](OCCOC)(OCCOC)OCCOC,survivor count,[12],3 of 6
Cc1c2cc3c(cc2cc2c4cc5c(cc4cc[n+]12)OCO5)OCO3 (tested in a mixture with another compound),T/C,"dose: 0.66 mg/kg/injection, schedule: Q04DX003 (ip), vehicle: saline",126 % of control
same,T/C,"dose: 1.0 mg/kg/injection, schedule: Q04DX003 (ip), vehicle: saline",131 % of control
same,T/C,"dose: 2.2 mg/kg/injection, schedule: Q04DX003 (ip), vehicle: saline",140 % of control
same,T/C,"dose: 3.3 mg/kg/injection, schedule: Q04DX003 (ip), vehicle: saline",131 % of control
CCCCCCCCCCCCCCCC[N+]1([O-])CCCCCC1,survivor count,"dose: 100.0 mg/kg/injection, schedule: Q01DX009 (ip), vehicle: saline",6 of 6
same,survivor count,"dose: 200.0 mg/kg/injection, schedule: Q01DX009 (ip), vehicle: saline",0 of 6
CCCCN1COCO[C@H]2CCC[C@@H]21,survivor count,[7],1 of 6
CC(=O)OC(C(=O)CBr)C(OC(C)=O)C(OC(C)=O)C(=O)CBr (centres undefined),survivor count,"dose: 50.0 mg/kg/injection, schedule: Q01DX009 (ip), vehicle: Klucel (hydroxypropylcellulose) (HPC)",0 of 6 and 5 of 6
same,survivor count,"dose: 100.0 mg/kg/injection, schedule: Q01DX009 (ip), vehicle: Klucel (hydroxypropylcellulose) (HPC)",0 of 6
same,survivor count,[12],0 of 6
Cc1ccc2sc3c(ccc(=O)n3C)c(=O)c2c1,survivor count,"dose: 400.0 mg/kg/injection, schedule: Q04DX002 (ip), vehicle: saline with Tween-80",0 of 6
O=C(Nc1cc(Cl)c(Cl)cc1Cl)OCc1ccc2c(c1)OCO2,survivor count,"dose: 120.0 mg/kg/injection, schedule: Q01DX005 (ip), vehicle: saline with Tween-80",6 of 6
same,survivor count,[2],6 of 6
O=CNC(Cc1ccccc1)C(=O)O (centres undefined),survivor count,[3],6 of 6

# Source: PubChem BioAssay AID330 (DTP/NCI, 2004)
